For seven molecules, binding results are on record in patent US20020009752A1 (DUKE UNIVERSITY, published 2002).

Chains of the proteins cited; added tags and fusions are not shown. Lines headed by an entry give the natural chain unless they say otherwise; changes in a name come on top.
UniProt Q156A1: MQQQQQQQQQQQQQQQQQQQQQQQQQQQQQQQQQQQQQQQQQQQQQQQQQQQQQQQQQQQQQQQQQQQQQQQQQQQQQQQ
UniProt Q54DK4: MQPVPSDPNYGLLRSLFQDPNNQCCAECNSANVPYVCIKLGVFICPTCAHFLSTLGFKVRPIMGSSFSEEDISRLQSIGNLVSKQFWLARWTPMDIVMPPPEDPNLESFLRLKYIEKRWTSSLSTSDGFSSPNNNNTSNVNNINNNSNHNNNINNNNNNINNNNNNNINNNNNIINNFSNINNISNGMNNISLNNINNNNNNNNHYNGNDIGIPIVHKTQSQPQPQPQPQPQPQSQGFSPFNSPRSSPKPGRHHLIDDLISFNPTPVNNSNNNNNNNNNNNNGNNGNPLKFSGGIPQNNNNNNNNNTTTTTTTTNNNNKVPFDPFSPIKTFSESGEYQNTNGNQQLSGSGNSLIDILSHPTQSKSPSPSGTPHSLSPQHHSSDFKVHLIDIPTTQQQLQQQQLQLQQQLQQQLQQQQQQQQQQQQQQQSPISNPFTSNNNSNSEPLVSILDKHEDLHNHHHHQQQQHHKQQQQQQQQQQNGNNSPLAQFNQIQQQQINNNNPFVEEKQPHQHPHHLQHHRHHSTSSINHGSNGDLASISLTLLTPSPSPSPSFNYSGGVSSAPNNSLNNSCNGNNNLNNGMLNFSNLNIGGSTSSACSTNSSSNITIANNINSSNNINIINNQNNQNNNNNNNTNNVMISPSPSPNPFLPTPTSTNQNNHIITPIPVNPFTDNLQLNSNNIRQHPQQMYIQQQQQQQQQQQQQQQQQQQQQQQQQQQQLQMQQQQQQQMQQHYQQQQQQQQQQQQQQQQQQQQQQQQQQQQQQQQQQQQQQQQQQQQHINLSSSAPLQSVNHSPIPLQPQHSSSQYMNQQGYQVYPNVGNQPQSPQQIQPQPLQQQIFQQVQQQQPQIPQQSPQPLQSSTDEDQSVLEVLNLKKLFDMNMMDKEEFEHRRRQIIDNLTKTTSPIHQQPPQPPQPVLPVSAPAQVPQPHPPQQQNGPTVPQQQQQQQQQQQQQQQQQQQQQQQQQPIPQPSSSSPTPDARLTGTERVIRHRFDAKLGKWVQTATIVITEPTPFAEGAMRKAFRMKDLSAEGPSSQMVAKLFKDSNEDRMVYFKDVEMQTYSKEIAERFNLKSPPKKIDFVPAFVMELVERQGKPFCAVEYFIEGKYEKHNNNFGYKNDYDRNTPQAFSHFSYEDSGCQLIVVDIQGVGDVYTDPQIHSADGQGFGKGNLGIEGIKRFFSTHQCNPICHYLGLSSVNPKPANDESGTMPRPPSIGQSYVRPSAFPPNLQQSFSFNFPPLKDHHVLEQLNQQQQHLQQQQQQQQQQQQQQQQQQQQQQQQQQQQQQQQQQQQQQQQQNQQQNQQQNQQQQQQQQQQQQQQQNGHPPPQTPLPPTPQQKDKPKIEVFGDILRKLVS

Assay [1] addresses polyglutamine-glutathione-S-transferase fusion protein with 62 glutamines (UniProt Q156A1). Description: phage ELISA on immobilized polyglutamine-GST.
The target in assay [2] is polyglutamine-YFP fusion protein with 81 glutamines (UniProt Q54DK4). Briefly: co-localisation by fluorescence microscopy in co-transfected COS-7 cells.

Results are given in words; binding and its absence hold for the method and conditions named. Some entries that bind do so weakly or less than the wild type. For some of these results: Where a sequence is shown, tags or fusion partners need not be part of it. No end group written: not given here.

B1: QBP3 phage clone (Glutamine Binding Peptide 3 displayed on M13 phage) (peptide)
chain: HEWHWWHQEAA-pIII
notes: Assayed as purified M13 phage displaying the 11-mer at the amino terminus of pIII; not shown: pIII (Piii) capsid protein of phage M13; the 11-mer is added to its amino terminus; assayed as whole phage
As to B1, the binding result in assay [1] is reported as “binds”.

B2: QBP5 phage clone (Glutamine Binding Peptide 5 displayed on M13 phage) (peptide)
chain: WWRWNWATPVD-pIII
notes: as for B1
On to B2, for which the binding entry in assay [1] is on record as “binds”.

As for SNWKWWPGIFD (peptide, not shown: large carriers) [glutamine binding peptide 1-CFP fusion protein], the binding result in assay [2] is recorded as “binds”.

B3: QBP6 phage clone (Glutamine Binding Peptide 6 displayed on M13 phage) (peptide)
chain: WHNYFHWWQDT-pIII
notes: as for B1
On to B3, for which, in assay [1], the binding result was “binds”.

B4: QBP1 phage clone (Glutamine Binding Peptide 1 displayed on M13 phage) (peptide)
chain: SNWKWWPGIFD-pIII
notes: as for B1
B4: in assay [1], the binding result was “binds”.

B5: QBP2 phage clone (Glutamine Binding Peptide 2 displayed on M13 phage) (peptide)
chain: HWWRSWYSDSV-pIII
notes: as for B1
Take B5: the binding entry in assay [1] is given as “binds”.

B6: QBP4 phage clone (Glutamine Binding Peptide 4 displayed on M13 phage) (peptide)
chain: WGLEHFAGNKR-pIII
notes: as for B1
With B6, the binding result in assay [1] is on record as “binds”.
